Several values for one entry are separate records, joined by “and”; a condition that tells them apart may be missing. Equal values may be shown once. The list shows a part of the results. Further columns of the screen follow, without active or inactive calls. Compounds called inactive in the main read-out are mostly missing here. Words in brackets tell the shape of the fitted curve; partial curves, single points and poor fits give uncertain potencies.
Test: qHTS Assay for Modulators of Lamin A Splicing
Conditions: HeLa LMNA splicing GFP/RFP minigene ratio, 48 h
Outline: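 S3 HeLa stable clones carrying a lamin A-EGFP splicing minigene plus DsRed2 were seeded at 600 cells/well in Opti-MEM with 2% FBS, pin-dosed and incubated 48 h at 37°C. Acumen cytometry (488 nm) gave the GFP/RFP total-intensity ratio.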

[1] = measured here: GFP splicing reporter channel
[2] = measured here: RFP viability control channel

| Compound | AC50 [1] | AC50 [2] |
| --- | --- | --- |
| Fc1ccc2nc3n(c2c1F)CCCCCC3 | 0.398 µM [rising, full curve, poor fit] |  |
| CCCCCn1c(=NC(C)=O)c(C#N)cc2c(=O)n3ccccc3nc21 |  | 3.98 µM [falling, partial curve, poor fit] |
| Cc1ccc(Nc2n[nH]c(C)c2[N+](=O)[O-])c(C)c1 | 6.31 µM [rising, partial curve] | 2 µM [rising, full curve] |
| O=C1N(CCCN2C(=O)C3(OCCO3)c3ccccc32)c2ccccc2C12OCCO2 | 14.1 µM [rising, single point] | 4.47 µM [rising, partial curve] |
| COc1ccccc1NS(=O)(=O)c1cccc(C(=O)N/N=C/c2c(C)nn(-c3ccccc3)c2N2CCCC2)c1 | 12.6 µM [rising, single point] | 20 µM [rising, single point] |
| CCOC(=O)c1c(C)oc2ncnc(Nc3ccc(F)cc3Cl)c12 | 1.26 µM [falling, full curve, poor fit] | 0.631 µM [falling, full curve] |
| Cc1cc(C)c(S(=O)(=O)NCc2ccncc2)c(C)c1 | 0.355 µM [rising, full curve] | 2.24 µM [rising, full curve] |
| CCOC(=O)C/C(C)=N\Nc1ccc([N+](=O)[O-])cc1[N+](=O)[O-] |  | 12.6 µM [falling, partial curve, poor fit] |
| Cc1ccc(OCC(=O)Nc2ccc(Cl)c(-c3nc4ncccc4o3)c2)cc1C | 1 µM [falling, partial curve, poor fit] | 17.8 µM [falling, partial curve, poor fit] |
| O=C(CSc1nnnn1C1CCCCC1)Nc1cccc(NC(=O)c2ccco2)c1 |  | 1.78 µM [rising, single point] |
| COc1cc(SC)ccc1C(=O)N1CCCCCC1 |  | 35.5 µM [rising, single point] |
| O=C(COC(=O)C1(c2ccc(Cl)cc2)CCCC1)N1CCc2ccccc21 | 11.2 µM [rising, single point] | 35.5 µM [rising, single point] |
| CCOc1ccc(NC(=S)N=Nc2c(O)[nH]c3ccccc23)cc1 | 14.1 µM [falling, single point] | 4.47 µM [rising, partial curve] |
| Cn1nnnc1SCCCNCc1ccc(-c2ccc(Br)cc2)o1 | 0.251 µM [falling, partial curve, poor fit] | 0.0562 µM [falling, full curve, poor fit] |
| C=CCNC(=O)N1CCc2nc(-c3ccc(OC)cc3C)c3c(c2C1)CO[C@@H](c1ccccc1)C3 | 5.62 µM [rising, single point] | 0.631 µM [falling, partial curve, poor fit] |
| Cc1nnnn1/C(=C\c1ccccc1)C(=O)OCC(=O)NC(C)(C)C |  | 11.2 µM [rising, partial curve] |

| Compound | AC50 [1] | AC50 [2] |
| --- | --- | --- |
| Cc1ccc(NC(=O)c2oc3ccccc3c2NC(=O)C2CCCO2)cc1C (centres undefined) |  | 20 µM [rising, partial curve, poor fit] |
| CCn1c(=N)c(C(=O)NC)cc2c(=O)n3cccc(C)c3nc21 | 0.0447 µM [falling, full curve, poor fit] |  |
| O=C(Nc1cccnc1)C1CCCN1S(=O)(=O)c1ccc(Cl)c(Cl)c1 (centres undefined) | 22.4 µM [rising, single point] | 31.6 µM [rising, single point] |
| CCN(CC)CCCNC(=O)c1cc2c(Cl)nc3ccccc3c2s1 |  | 12.6 µM [rising, single point] |
| C[C@@H]1CCN(C(=O)[C@H](CCCNC(=N)N)NS(=O)(=O)c2cccc3c2NC[C@H](C)C3)[C@@H](C(=O)O)C1 | 35.5 µM [falling, single point] | 35.5 µM [falling, single point] |
| COc1ccc(Br)cc1CNC(=O)CCNC(=O)Cn1ccc2ccccc2c1=O | 3.98 µM [falling, partial curve, poor fit] |  |
| C=CCn1c(SCC(=O)Nc2cccnc2Cl)nnc1-c1ccc(C(C)(C)C)cc1 |  | 20 µM [rising, partial curve] |
| Cc1ccc(C(=O)CSc2nnc(-c3ccccc3N)n2C)cc1C | 20 µM [rising, single point] | 22.4 µM [rising, partial curve] |
| Cc1cccc(OCC(=O)N/N=C/c2ccc3c(c2)OCO3)c1 | 35.5 µM [rising, single point] | 25.1 µM [rising, single point] |
| COc1ccc(/C=C/C(=O)c2ccc(O)cc2)cc1COc1ccc(F)cc1 | 35.5 µM [falling, single point] |  |
| COc1ccccc1/C=C/C=N/n1c(-c2ccc(C)cc2)n[nH]c1=S | 31.6 µM [rising, single point] | 14.1 µM [rising, single point] |
| CCn1c(COc2ccc3c(c2)CCCC3)nnc1SCC(=O)Nc1ccc(C(=O)OC)cc1 | 12.6 µM [falling, partial curve, poor fit] |  |
| OCCN(CCO)c1nc(N2CCCCC2)c2nc(N(CCO)CCO)nc(N3CCCCC3)c2n1 | 3.55 µM [falling, partial curve, poor fit] and 10 µM [rising, partial curve] | 2.24 µM [falling, partial curve] and 3.98 nM [rising, full curve, poor fit] and 15.8 µM [rising, partial curve, poor fit] |
| Cc1ccc(C2CC(=O)C(C=NCCN3CCN(CC(=O)Nc4cc(C)cc(C)c4)CC3)=C(O)C2)cc1 (centres undefined) | 11.2 µM [rising, partial curve, poor fit] | 31.6 µM [rising, single point] |
| O=C(CNC(c1ccccc1)c1ccccc1)Nc1cc([N+](=O)[O-])ccc1Cl | 31.6 µM [rising, single point] | 31.6 µM [rising, single point] |

2 records picked at random from the list so far:

| Compound | AC50 [1] | AC50 [2] |
| --- | --- | --- |
| C=CCNC(=O)N1CCc2nc(-c3ccc(OC)cc3C)c3c(c2C1)CO[C@@H](c1ccccc1)C3 | 5.62 µM [rising, single point] | 0.631 µM [falling, partial curve, poor fit] |
| COc1ccc(Br)cc1CNC(=O)CCNC(=O)Cn1ccc2ccccc2c1=O | 3.98 µM [falling, partial curve, poor fit] |  |

Source: PubChem BioAssay AID1487 (National Center for Advancing Translational Sciences (NCATS), 2009)
